# Test results from US11332455B2, “α,β-unsaturated amide compound” (KYOWA KIRIN CO., LTD., priority 2015, dated 2022).
# Some of these results come from one statement about several compounds together. For part of these data: At least one compound was matched to its structure with a doubt left.
# Legend:
# [1] = tested on: NCI-H226 cells, a human mesothelioma cell line; test: Cell growth inhibitory effect, cell counting kit 8, 6 days; format: cell-based; conditions: 6 days incubation
# Source text: Cell growth inhibitory effect on human mesothelioma, human liver cancer, human ovarian cancer, and […]
# NCI-H226 cells, a human mesothelioma cell line (ATCC, CRL-5826), NCI-H322 cells, a human lung cancer cell line (the European Collection of Authenticated Cell Cultures, 95111734), OVTOKO cells, a human ovarian cancer cell line (JCRB cell bank, JCRB1048) and HuH28, a human liver cancer cell line (JCRB cell bank, JCRB0426) were each subcultured by keeping the cell density under 80% in a RPMI1640 culture medium with 10% fetal bovine serum (FBS). NCI-H226 cells, NCI-H322 cells and SSP-25 cells were each suspended in the RPM11640 culture medium mentioned above, and plated to a 96-well flat-bottom plate at 500 cells/well in each well, and incubated at 37° C. in an incubator with 5% CO2 for one day. After the incubation, the evaluation of cell growth inhibitory activity was started. OVTOKO cells were suspended in the RPMI1640 culture medium mentioned above, and plated to a 96-well flat-bottom plate at 250 cells/well in each well, and incubated it at 37° C. in an incubator with 5% CO2 for one day. After the incubation, the evaluation of the cell growth inhibitory activity was started. […] After the reaction, an absorbance at wavelength of 450 nm was measured using a microplate reader. […]
# [2] = tested on: OVTOKO cells, a human ovarian cancer cell line; test: as above; format: cell-based; conditions: 6 days incubation, second bound printed in μmol/L
structure (smiles),measurement,setting,value
"C=CC(=O)N[C@H]1CC[C@@H](Oc2ccc(Cl)c(Cl)c2)c2nc(Cl)ccc21 (relative stereo) [Compound 178, cis-N-{2-Chloro-8-(3,4-dichlorophenoxy)-5,6,7,8-tetrahydroquinolin-5-yl}acrylanide]",GI50,[1]; group less than 100 nmol/L,< 100 nM
"O=C(/C=C/C(F)(F)F)NCc1ccc(Oc2ccc(Cl)cc2)c2ncccc12 [Compound 135, (E)-N-[{8-(4-Chlorophenoxy)quinolin-5-yl}methyl]-4,4,4-trifluoro-2-buten amide]",GI50,[1]; group 100 nmol/L to 1 μmol/L (upper bound given in μmol/L),100 to 1000 nM
"C=CC(=O)NCc1ncc(Oc2ccc(C(F)(F)F)cc2)c2ccccc12 [Compound 224, N-([4-{4-(Trifluorophenyl)phenoxy}isoquinolin-1-yl]methyl)acrylamide]",GI50 value,[2],3000 to 1000 nM
